Data source: PubChem BioAssay AID1159578 (Peter MacCallum Cancer Centre, 2015)
Screen: 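Knock-downs that alter how fast lymphatic endothelial cells migrate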 (primary screen). Cell system: human lymphatic endothelial cells. Reagents: siRNA pool against human genes, 40 nM. Timing: 48 h after transfection. Measurement: 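Cells stained with dye and imaged after a scratch; covered wound area and nuclei counted, duplicates averaged, migration set against mock wells and turned into a robust z-score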. Scale: migration robust z-score: higher = faster migration into the scratch; nuclei per well: higher = more cells in the well. Hit rule: 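Migration changed when robust z exceeds 2 or falls below -2 and mean nuclei number is at least 3300; otherwise not called changed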. Meaning of the calls: active = migration changed; inactive = no migration change, or too few cells.
Here is one part, drawn at random, of about 18,000 reagents tested. In the full data, about 1,030 (5.7%) got an active call. 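Inactive calls also include pools with fewer than 3300 nuclei, whose migration was not assessed.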 Raw values are not corrected between plates. Further read-outs or replicates are left out here.

target	migration robust z-score	nuclei per well, duplicate mean	call
STX5	0.23	5952	inactive
L3HYPDH	-0.29	4540	inactive
CPPED1	0.08	6292	inactive
FAM169BP	1.06	6017	inactive
CPT1A	0.05	4838	inactive
DEFB105A	1.3	6081	inactive
MAP9	-0.24	6332	inactive
COL26A1	-0.36	6063	inactive
LY75	1.02	6011	inactive
PLCD4	0.36	6607	inactive
DLGAP3	0.92	6267	inactive
IFNA8	0.97	5453	inactive
UBN1	0.94	4534	inactive
MAPK8	-0.44	4986	inactive
GGA2	-1.17	5392	inactive
GHRHR	-1.58	3114	inactive
PRR20A	0.45	6177	inactive
C16orf54	-1.82	3170	inactive
LRRN2	-0.95	3982	inactive
SLCO1C1	-0.39	6568	inactive
CEACAM3	-0.24	4199	inactive
SLC39A14	1.1	5567	inactive
ARHGAP18	-0.39	5530	inactive

Part of the list above, limited to “nuclei per well, duplicate mean”:
C16orf54: 3170
LRRN2: 3982
SLCO1C1: 6568
CEACAM3: 4199
SLC39A14: 5567
ARHGAP18: 5530

The list goes on:
target	migration robust z-score	nuclei per well, duplicate mean	call
NEK8	-4.54	2244	inactive
POLE	-0.62	2160	inactive
GLRX2	1.14	7090	inactive
TSPAN31	-0.12	6501	inactive
STK40	-2.59	5564	active
ZNF230	1.38	6487	inactive
CARD17P	-0.47	7448	inactive
RSPH6A	1.94	6953	inactive
REXO4	-0.03	4512	inactive
ART1	-1.3	5264	inactive
SLC2A10	-3.41	5206	active
MIX23	1.25	5734	inactive
ZSCAN31	0.46	6699	inactive
FAM81A	0.8	7850	inactive
PROSER2	-0.26	5088	inactive
F12	-1.48	5646	inactive
